Results are given in words; binding and its absence hold for the method and conditions named. Binding seen in cells or lysates may run through a third protein. Binding calls can cover weak binding; strength is not graded here. Tags and fused reporters may be left off the sequences shown.
B1: RFP-tagged SEC24D (protein, UniProt Q6NXL1 1-1032)
chain: MSQQGYVATPPYSQSQPGMGISPPHYGHYGDPSHASSPPGVMKPLGPSAAPSGMLPPGPLPPGPPQFGPNGAHTPGHPPQRFPGPPPVNSVAPSYASGQTLPQSSYPGPGSTSSVTQLGSQFSSMQINSYGVGATPQSQGPPGPQSAGAFQGPPQPAQPSILQPGHQVPPPPPTALNGPGASPMSPPTHRQDGLPGPAPLNAQYQPPPPPGQTLGPGYPPQQATNYGPQMGGAQMSYPGGFPGGPAQMAGPAPQLQRKLDPDSIPSPIQVIENDRATRGGQVYTTNTRGQVPPLVTTECVIQDQGHSSPRYIRCTTYCFPCTSDMAKQAQIPLAAVIKPFADIPPNETPLYLVNHGESGPVRCNRCKAYMCPFMQFIEGGRRYQCGFCSCVNEVPPFYFQHLDHIGRRLDHYEKPELSLGSYEYVATLDYCRKNKPPSPPAFIFMIDVSYSNIKNGLVKLICEELKTALKRLPKEEHEETSAIRVGFITYNKVLHFFNVKSNLAQPQMMVVTDVGEVFVPLLDGFLVNYEESQSVIHNLLDQIPEMFADSNENETVFAPVIQAGMEALKAAECPGKLFIFHSSLPTAEAPGKLKNRDDKKLVNTDKEKILFQPQTAVYESLAKDCVANSCSVTLFLFPSQFVDVASLGLVPLLTGGTLYKYNVFQIHSDSQRFLTDLRNDIEKKIGFDAIMRVRTSTGFRATDFFGGIFMNNTTDVEMAAIDCDKAVTVEFKHDDKLSEDVGALIQCAVLYTTISGQRRLRIHNLALNCSTQLADLYKSCETDALINFFAKSAFKAVLNQPLKAIREILVNQTAHMLACYRKHCASPSAASQLILPDSMKVLPVYMNSLLKNCVLLSRSEISPDERAYQRQLVMTMGVADSQLFFYPLLLPIHTLDVKSAALPPAVRCSESRLSEEGIFLLANGLNMFLWFGVGSPPELIQGIFNVPSFAHINTDMTSLPEVGSPHSQQLRMIMNNIQQKKPYSMKLIVVKQREQREMAFRQFLVEDKGLYGGSSYVDFLCCVHKEICQLLN
B2: RFP-tagged SEC24A (protein, UniProt Q3U2P1 1-1090)
chain: MAQPRIPAARGAAASLQAQNGAASASGSPYTNGPVHNTLMSPQVSSSQGYDSQPPGSYPRPMPAKTLNPFSAQSNYGGSQGSGQTLNSPLVTSGPVLPSLHSGPVPRMPLPTSQNPAATPMPSGSFLPGANPPPPLNWQYNYPSTGPQTNHFPHVAPPTLPGNPNLTADHQYVSSGDPALQTSFKKPGSALPLQNPPLPPTFQPGAPPGPPPAGGPPPSRGPAPQKTPPRAAPPPSFNSAVNQEGITSNANNGSTAAHNTYDEIEGGGFLATPQLVNQNPKTSRSVGSAYPSLPPGYQNSAPPVAGMPPPSLSYPSGPQAFTQTPLGANHLTASMSGLSLHPEGLRVVNLLQERNMLPSTPLQPPVPNLLEDIQKLNCNPELFRCTLTSVPQTQALLNKAKLPLGLLLHPFKDLVQLPVVTSSTIVRCRSCRTYINPFVNFLDQRRWKCNLCYRVNDVPEEFMYNPLTRVYGEPHKRPEVQNATIEFMAPSEYMLRPPQPPVYLFVFDVSHNAIETGYLNSVCQSLLDNLDLLPGNTRTKIGFITFDSTIHFYSLQEGLSQPQMLIVSDIDDVFIPMPENLLVNLNESKELVQDLLKTLPQMFTKTLETQSALGPALQAAFKLISPTGGRMSVFQTQLPTLGVGALKPREEPNQRSSAKEIHLTPSTDFYKKLALDCSGQQAAVDLFLLSGQYSDLASLGCISRYSAGSVYYYPSYHHQHNPVQVQKLQKELHRYLTRKIGFEAVMRIRCTKGLSIHTFHGNFFVRSTDLLSLPNVNPDAGYAVQMSVEESLTDTQLVSFQSALLYTSSKGERRIRVHTLCLPVVSTLNEVFLGADVQAISGLLANMAVDRSVTASLSDARDALVNAVIDSLSAYRSSVLSGQQPGLMVPFSLRLFPLFVLALLKQKSFQTGTSIRLDERIFAMCQVKSQPLVHLMLTTHPSLYRVDNLSDEGALNINDRTIPQPPILQLSVEKLSRDGAFLMDAGSLLMLWVGRNCSQNFLSQVLGVQNYASIPQTMTDLPELDTPESARIAAFISWLREQRPFFPVLYVIREESLMKAAFLQSLVEDRTESALSYYEFLLHIQQQVNK
B3: RFP-tagged SEC24B (protein, UniProt Q80ZX0 1-1251)
chain: MSAPAGSPHPAAGARMPPKLGGAVSGLAPPQQNGPAQSPMQVPSGYGLPHQNYMVPSGHYSQGPGKMTSLPLDSQCDSYYSRPYTVPTQNSGTPSSANQPGAQQMYGRGPSAPHMGGSMPGSFQGIPASASHSYSSASQPYSSLGNRYSSPTTYSANASVASQGYPSTCSHYPISTVSNVVYPNVSYPSLPASEPYGQMFTSQSAPPPARPVKESYSGPSTALTYPSRPPPPPSQHQQQQQQQQQQQQQQQSHSGYSSLPWSGPALPPAQDSLIRNQMGSLATANSHPTNNENVQPPKSSSVVSTVLPGPSSTRMPPAPSHPVGPVPSAPPPPEQMQTKGMQYGDYGNNQASSTATPLSSASDDEEEQEEDEEAGVDSSSTTSSASPLPNSYDALEGGSYPDMHSSSASSPVPDHALEPSPTLAQALSAAPTPPAAQPAKVAKPFGYGYPALQPAYQNAAPPPMPAAHPSGPAYTGYPQHYPGVNQLSSGLGGLSLQSSPQPESLRPVNLTQEKNILPPTPIWAPVPNLSAELSKLNCSPDSFRCTLTSIPQTQALLNKAKLPLGLLLHPFRDLTQLPVITSNTIVRCRSCRTYINPFVSFIDQRRWKCNLCYRVNDVPEEFLYNPLTRSYGEPHKRPEVQNSTVEFIASSDYMLRPPQPAVYLFVLDVSHNAVEAGYLTVLCQSLLENLDKLPGDSRTRIGFMTFDSTIHFYNLQEGLSQPQMLIVSDIDDVFLPTPDSLLVNLYESKELIKDLLNALPSMFINTRETHSALGPALQAAFKLMSPTGGRVSVFQTQLPSLGAGLLQSREDPNQRSSTKVVHHLGPATDFYKKLALDCSGQQTAVDLFLLSSQYSDLASLACMSKYSAGCIFYYPSFHSTHNPSQAEKLQKDLKRYLTRKIGFEAVMRIRCTKGLSMHTFHGNFFVRSTDLLSLANINPDAGFAVQLSIEESLTDTALVCFQTALLYTSSKGERRIRVHTLCLPVVSSLADVYAGVDVQAAVCLLANMAVDRSVSSSLSDARDALVNAVVDPLSAYSSAVASVPRSTLTAPSSLKLLPLYVLALLKQKAFRTGTSTRLDDRVYAMCQMKSQPLVHLMKMIHPNLYRIDRLTDEGAIHVNDRVVPQPPLQKLSAEKLTREGAFLMDCGSVFYIWVGKGCDSNFIENVLGYPDFASIPQKMTHLPELDTLPSERTRSFVTWLRDSRPLSPVLHLVKDESPAKTDFFQHLLEDRTEAALSYYEFLIHIQQQVCK
B4: RFP-tagged SEC24C (protein, UniProt G3X972 1-1096)
chain: MNVNQSAPPVPPYGQNQPIYPGYHQSSYGGQPGPAAPATPYGAYNGPVPGYQQAPPQGVPRAPPSSGAPPASAAQVPCGQTTYGQFGQGDIQNGPSSTAQMQRVPGSQQFGPPLAPVVSQPAVLQPYGPPPTSTQVTAQLAGMQISGAVAQAPPPSGLGYGPPTSLASASGNFPNSGPYGSYPQSQAPPLSQAQGHPGVQPPLRSAPPLASSFTSPASGGPQMPSMTGLLPPGQGFGSLPVNQANHVSSPPAPALPPGTQMTGPPVPPPPPMHSPQQPGYQLQQNGSFGPARGPQPNYESPYPGAPTFGSQPGPPQPLPPKRLDPDAIPSPIQVIEDDRNNRGSEPFVTGVRGQVPPLVTTNFLVKDQGNASPRYIRCTSYNIPCTSDMAKQAQVPLAAVIKPLARLPPEEASPYVVDHGESGPLRCNRCKAYMCPLMTFIEGGRRFQCSFCSCVNDVPPQYFQHLDHTGKRVDAYDRPELSLGSYEFLATVDYCKNNKFPSPPAFIFMIDVSYNAIRTGLVRLLCEELKSLLDYLPREGGAEESAIRVGFVTYNKVLHFYNVKSSLAQPQMMVVSDVADMFVPLLDGFLVNVSESRAVITSLLDQIPEMFADTRETETVFAPVIQAGMEALKAAECAGKLFLFHTSLPIAEAPGKLKNRDDRKLINTDKEKTLFQPQTGTYQTLAKECVAQGCCVDLFLFPNQYVDVATLSVVPQLTGGSVYKYACFQVENDQERFLSDLRRDVQKVVGFDAVMRVRTSTGIRAVDFFGAFYMSNTTDVELAGLDGDKTVTVEFKHDDRLNEENGALLQCALLYTSCAGQRRLRIHNLALNCCTQLADLYRNCETDTLINYMAKFAYRAVLNSPVKTVRDTLITQCAQILACYRKNCASPSSAGQLILPECMKLLPVYLNCVLKSDVLQPGAEVTTDDRAYVRQLVSSMDVAETNVFFYPRLLPLTKSPLDSTAEPPAVRASEERLSSGDIYLLENGLNLFVWVGASVQQGVVQSLFNVSSFSQITSGLSVLPVLDNPLSKKVRGLIDSLRAQRMRYMKLIVVKQEDKLEMLFKHFLVEDKSLSGGASYVDFLCHMHKEIRQLLS

Sequences of proteins named here, by UniProt entry; tags and fusion partners are left off. A change or cut given only in a name is not applied to a line headed by its entry.
UniProt Q80W65: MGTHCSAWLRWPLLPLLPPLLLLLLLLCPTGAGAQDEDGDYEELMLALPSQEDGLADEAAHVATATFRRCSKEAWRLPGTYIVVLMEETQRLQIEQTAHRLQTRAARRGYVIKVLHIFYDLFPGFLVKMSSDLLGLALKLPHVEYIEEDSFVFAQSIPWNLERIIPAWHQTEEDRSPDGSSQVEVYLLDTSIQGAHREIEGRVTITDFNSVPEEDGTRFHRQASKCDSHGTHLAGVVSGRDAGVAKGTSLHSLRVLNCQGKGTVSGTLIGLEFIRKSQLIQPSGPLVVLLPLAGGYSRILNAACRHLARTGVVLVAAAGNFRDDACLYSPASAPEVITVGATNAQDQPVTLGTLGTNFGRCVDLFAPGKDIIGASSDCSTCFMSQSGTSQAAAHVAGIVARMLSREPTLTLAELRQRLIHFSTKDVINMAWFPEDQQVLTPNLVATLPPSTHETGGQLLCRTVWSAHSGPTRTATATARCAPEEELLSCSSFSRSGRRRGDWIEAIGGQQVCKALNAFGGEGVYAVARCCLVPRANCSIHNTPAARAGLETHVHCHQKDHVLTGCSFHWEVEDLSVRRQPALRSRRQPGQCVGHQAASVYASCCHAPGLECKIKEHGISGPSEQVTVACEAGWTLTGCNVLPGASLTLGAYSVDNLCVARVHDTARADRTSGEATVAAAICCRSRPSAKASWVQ

Molecular target: PCSK9 fused with a C-terminal FLAG tag (PCSK9-FLAG) (mouse) (UniProt Q80W65)
Experiment: co-IP; lysates of 293T cells stably expressing PCSK9-FLAG, transfected with RFP-tagged SEC24A-D and GFP-tagged SEC23A; extracted in CHAPS-based buffer B (100 mM Tris pH 7.5, 0.5% CHAPS, 10% glycerol, 130 mM NaCl), anti-FLAG M2 agarose 4 hr at 4°C, four washes; immunoblot with anti-RFP and anti-FLAG

binding	Binder
no binding	B1
binds	B2
binds	B3
no binding	B4

Reference: article PMC3622177
